Assay results: the supplement of paper PMC6078165

Tested on: Hs578T
Assay: relative JC-1 red fluorescence (viability) vs pre-drug, coculture with fibroblast (fraction); higher = more viable cancer cells
Conditions: 100 µM
Protocol: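 JC-1 labelled TNBC cells cocultured 1:1 (1,500 cells each) with CellTrace Violet stained primary or stromal fibroblasts in 384-well plates in FluoroBrite medium, treated with one of 42 anticancer drugs at 0.1, 1, 10 or 100 uM. JC-1 red fluorescence (mitochondrial integrity in cancer cells only) was read by plate reader every 8 h for 72 h. Values are normalised to each well's pre-drug value. The stock of one drug was tenfold lower, so its dose labels may be too high.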

Cc1c2oc3c(C)ccc(C(=O)N[C@@H]4C(=O)N[C@H](C(C)C)C(=O)N5CCC[C@H]5C(=O)N(C)CC(=O)N(C)[C@@H](C(C)C)C(=O)O[C@@H]4C)c3nc-2c(C(=O)N[C@@H]2C(=O)N[C@H](C(C)C)C(=O)N3CCC[C@H]3C(=O)N(C)CC(=O)N(C)[C@@H](C(C)C)C(=O)O[C@@H]2C)c(N)c1=O [Dactinomycin] (I: T[dV]P[Sar][NMeV] / II: T[dV]P[Sar][NMeV]; ester I:1-I:C, II:1-II:C; linker I:N-II:N via Actinocin(9to1))
Conditions	relative JC-1 red fluorescence
8 h	0.888
16 h	0.734
24 h	0.606
32 h	0.546
40 h	0.492
48 h	0.447
56 h	0.428
64 h	0.405
72 h	0.404

relative JC-1 red fluorescence
Conditions	8 h	16 h	24 h	32 h	40 h	48 h	56 h	64 h	72 h
coculture fibroblast: C12385	0.756	0.691	0.6248	0.53	0.472	0.428	0.38	0.37	0.368
coculture fibroblast: H6013	0.7832	0.728	0.656	0.608	0.535	0.497	0.47	0.446	0.419
coculture fibroblast: H6019	0.684	0.5931	0.576	0.464	0.4178	0.396	0.3645	0.366	0.353
coculture fibroblast: H6076	0.8429	0.743	0.682	0.651	0.598	0.576	0.553	0.544	0.529
coculture fibroblast: H6231	0.866	0.765	0.686	0.642	0.593	0.5514	0.5113	0.495	0.48
coculture fibroblast: HADF	0.842	0.82	0.761	0.674	0.63212	0.619	0.589	0.579	0.539
coculture fibroblast: HCFa	0.818	0.784	0.722	0.684	0.64	0.642	0.629	0.624	0.57
coculture fibroblast: HCPF	0.856	0.764	0.698	0.668	0.606	0.584	0.561	0.521	0.485
coculture fibroblast: HHSteC	0.864	0.818	0.729	0.666	0.634	0.592	0.56	0.539	0.506
coculture fibroblast: HMF	0.823	0.732	0.66	0.645	0.5917	0.57	0.547	0.509	0.49
coculture fibroblast: HPFa	0.8279	0.787	0.737	0.688	0.668	0.652	0.623	0.63	0.605
coculture fibroblast: HUF	0.7696	0.701	0.697	0.606	0.57	0.563	0.533	0.537	0.538
coculture fibroblast: Hs27A	0.857	0.79	0.739	0.687	0.587	0.555	0.498	0.478	0.425
coculture fibroblast: Hs343T	0.871	0.687	0.566	0.529	0.464	0.436	0.41	0.39	0.389
coculture fibroblast: WS1	0.7165	0.636	0.5739	0.469	0.4005	0.382	0.354	0.351	0.344

The reference is the same well before dosing, and untreated signal decays as well.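 Labels refer to human fibroblasts, largely primary: uterine (C12385, HUF), lung (H6013), bone (Hs27A), adrenal (HADF), skin (WS1), plus mammary HMF and breast cancer-associated Hs343T. Cancer lines are basal-like or mesenchymal-like triple-negative breast cancer. The paper counts as hits responses shifting over 3x the replicate standard deviation. The tissue of the other fibroblasts is not given here.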 Numbered stars: 1 amine (or outer) side, 2 acyl side, 3 side chain; on linkers, the order of the positions; unused ones are H or OH. Bridge positions count the residues as written; N and C are the ends. Square brackets hold non-standard residues; d marks the D form. Peptide text beside a SMILES is read from it. I, II: the chains in the order shown. Actinocin(9to1) = Cc1c2oc3c(C)ccc(C(=O)[*:1])c3nc-2c(C(=O)[*:2])c(N)c1=O; NMeV = CN[C@H](C(=O)O)C(C)C; Sar = CNCC(=O)O
